Results on 1 substance are retold here after paper PMC11444156.

Protein sequences, listed by entry. Tags and fused reporters are not part of them.
UniProt Q6X632: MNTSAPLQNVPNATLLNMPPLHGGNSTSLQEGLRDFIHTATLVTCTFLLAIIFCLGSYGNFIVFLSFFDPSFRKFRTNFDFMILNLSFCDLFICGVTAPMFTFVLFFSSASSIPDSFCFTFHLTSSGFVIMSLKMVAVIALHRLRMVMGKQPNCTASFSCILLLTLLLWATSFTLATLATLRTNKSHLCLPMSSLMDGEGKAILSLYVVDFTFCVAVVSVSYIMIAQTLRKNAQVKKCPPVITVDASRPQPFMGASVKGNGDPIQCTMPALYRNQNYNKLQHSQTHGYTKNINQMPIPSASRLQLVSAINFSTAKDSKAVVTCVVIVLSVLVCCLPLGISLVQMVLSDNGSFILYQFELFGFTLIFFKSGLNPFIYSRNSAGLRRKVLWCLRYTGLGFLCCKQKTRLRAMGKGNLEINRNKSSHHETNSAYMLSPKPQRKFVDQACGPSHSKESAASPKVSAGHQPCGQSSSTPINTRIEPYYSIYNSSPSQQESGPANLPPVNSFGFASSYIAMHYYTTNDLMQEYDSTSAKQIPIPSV
UniProt P21279: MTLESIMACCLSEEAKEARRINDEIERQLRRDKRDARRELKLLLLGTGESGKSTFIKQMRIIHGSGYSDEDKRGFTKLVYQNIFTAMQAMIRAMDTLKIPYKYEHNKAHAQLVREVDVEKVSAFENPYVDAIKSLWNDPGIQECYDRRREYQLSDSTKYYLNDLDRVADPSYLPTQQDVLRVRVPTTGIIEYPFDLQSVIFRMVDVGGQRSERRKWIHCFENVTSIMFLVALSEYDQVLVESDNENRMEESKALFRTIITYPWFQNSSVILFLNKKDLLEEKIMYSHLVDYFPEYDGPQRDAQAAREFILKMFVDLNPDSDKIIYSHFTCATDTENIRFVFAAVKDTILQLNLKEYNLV

No constants are given. Whether binding was seen depends on the method and setting. Binding seen in cells or lysates may run through a third protein. Some results given as binding are weak or reduced against the parent protein; the word gives no strength.

The test concerns the target 3xFlag-tagged mouse Gpr75 expressed in 293T cells (mouse) (UniProt Q6X632). Put plainly: co-IP; 293T cells expressing HA-tagged Gnaq and 3xFlag-tagged Gpr75; Nonidet P-40 lysis buffer, Flag antibody-conjugated beads 2 hours at 4°C, eluted with 3xFlag peptides, immunoblot.

For the substance “HA-tagged mouse Gnaq expressed in 293T cells (from UniProt P21279 1-359)”, the binding entry is on record as “binds”.
